The values that follow come from publication PMC6185907.

By UniProt entry, the sequences of proteins in these tests, tags left out. Where a name states a change or a piece, a line headed by the entry shows the natural chain unless it says otherwise.
UniProt Q9LX85: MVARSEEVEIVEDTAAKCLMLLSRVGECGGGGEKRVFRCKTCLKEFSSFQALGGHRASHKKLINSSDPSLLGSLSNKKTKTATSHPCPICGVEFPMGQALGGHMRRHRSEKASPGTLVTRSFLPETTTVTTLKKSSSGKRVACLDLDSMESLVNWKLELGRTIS

Results are given in words; binding and its absence hold for the method and conditions named. Binding can be weak; no strength is given. Where a sequence is shown, tags or fusion partners need not be part of it. For some of these results: Binding seen in cells or lysates may run through a third protein.

The target of assay [1] is T1, GST-Topless (N-terminal sequence of Topless, 1-188 AA) (UniProt Q94AI7).
T1 sequence: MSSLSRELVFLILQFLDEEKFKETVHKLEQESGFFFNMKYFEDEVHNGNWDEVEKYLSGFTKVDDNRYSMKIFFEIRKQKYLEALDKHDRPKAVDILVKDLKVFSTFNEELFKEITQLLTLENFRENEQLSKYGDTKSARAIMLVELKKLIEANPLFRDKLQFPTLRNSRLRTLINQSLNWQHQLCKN
The experiment in a line: pull-down; in vitro GST pull-down; GST-Topless (1-188) with MBP-SRG1; western blot with anti-MBP or anti-GST antibodies; both purified. For orientation: In western blotting, separated proteins are transferred to a membrane and probed.

In assay [2] the target is T2, Topless, yeast two-hybrid fusion (UniProt Q94AI7).
T2 sequence: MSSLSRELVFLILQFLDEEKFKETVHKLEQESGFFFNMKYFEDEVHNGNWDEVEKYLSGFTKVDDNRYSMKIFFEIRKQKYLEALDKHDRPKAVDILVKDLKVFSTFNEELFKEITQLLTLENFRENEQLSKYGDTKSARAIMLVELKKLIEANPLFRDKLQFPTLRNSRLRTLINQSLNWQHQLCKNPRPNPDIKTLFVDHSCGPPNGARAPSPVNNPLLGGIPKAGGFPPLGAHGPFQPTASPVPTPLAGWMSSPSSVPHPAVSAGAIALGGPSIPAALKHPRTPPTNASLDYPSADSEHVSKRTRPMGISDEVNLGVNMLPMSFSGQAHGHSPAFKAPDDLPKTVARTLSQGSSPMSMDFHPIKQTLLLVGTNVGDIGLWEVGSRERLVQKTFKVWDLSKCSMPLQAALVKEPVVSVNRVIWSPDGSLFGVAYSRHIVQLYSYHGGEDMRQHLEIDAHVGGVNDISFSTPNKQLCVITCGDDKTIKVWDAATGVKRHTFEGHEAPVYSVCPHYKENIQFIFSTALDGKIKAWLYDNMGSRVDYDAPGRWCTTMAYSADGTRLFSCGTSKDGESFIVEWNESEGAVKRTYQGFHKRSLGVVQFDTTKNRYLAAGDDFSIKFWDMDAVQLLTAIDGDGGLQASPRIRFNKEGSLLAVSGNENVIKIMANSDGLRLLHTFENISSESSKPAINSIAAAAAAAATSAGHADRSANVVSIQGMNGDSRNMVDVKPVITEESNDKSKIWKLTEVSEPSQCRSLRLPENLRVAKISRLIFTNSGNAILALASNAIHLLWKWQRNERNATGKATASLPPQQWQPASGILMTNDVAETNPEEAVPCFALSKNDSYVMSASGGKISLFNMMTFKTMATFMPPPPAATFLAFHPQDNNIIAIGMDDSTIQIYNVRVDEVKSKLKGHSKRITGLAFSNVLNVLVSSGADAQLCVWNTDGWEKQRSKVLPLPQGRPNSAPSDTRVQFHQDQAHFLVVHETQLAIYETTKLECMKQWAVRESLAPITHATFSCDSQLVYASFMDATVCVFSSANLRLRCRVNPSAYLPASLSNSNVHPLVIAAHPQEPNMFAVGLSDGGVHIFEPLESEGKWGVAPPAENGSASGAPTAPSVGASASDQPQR
The experiment in a line: two-hybrid; yeast two-hybrid, Gal4 AD and BD fusions; spotted on SD-TL or SD-TLH with 5 mM 3-amino-1,2,4 triazole (3AT).

In assay [3] the target is T3, Topless fused to the N-terminus of YFP (Topless-YN) (UniProt Q94AI7).
T3 sequence: T2 sequence
The experiment in a line: split reporter; BiFC; Topless-YN and SRG-YC transiently co-expressed in N. benthamiana leaves by agroinfiltration; YFP fluorescence by confocal microscopy.

Consider “Recombinant MBP-SRG1 (SNO-regulated gene1, C2H2 zinc finger transcription factor) (from UniProt Q9LX85)”, for which, in assay [1], the binding entry is recorded as “binds”.

Turning to “SRG1 deleted of the EAR motif (SRG1^Δ), yeast two-hybrid fusion (Arabidopsis) (domain or fragment)”, the binding result in assay [2] is given as “no binding”.

For “SRG1 fused to the C-terminus of YFP (SRG-YC) (from UniProt Q9LX85)”, the binding entry in assay [3] was “binds”.

Turning to “SRG1, yeast two-hybrid fusion (from UniProt Q9LX85)”, the binding entry in assay [2] is on record as “binds”.
